The source of these data is patent US12461078B2, “Compounds for use in system suitability testing of inert LC systems and columns” (priority 2020, dated 2025).

A short description of data set [1]: Flow injection test of AMPcP (no column), LC with ethylene bridged hybrid surfaces versus MP35N flowpath (FIG. 2).
Data set [2] is described as follows: Flow injection of AMPcP and caffeine on fully inert HST LC system versus partially inert system with one MP35N part (FIG. 6).
[3] abbreviates: metallic MP35N flowpath versus ethylene bridged hybrid surfaces, 6 replicate injections, 0.5 mL/min 80:20 acetonitrile:water.
[4] abbreviates: fully inert system, 0.5 mL/min 80:20 acetonitrile:water.
Setting [5] is: partially inert system (one MP35N part).
Where [6] appears, read: partially inert system (one MP35N part, ~40% of flow path surface area).
Where [7] appears, read: partially versus fully inert system.

For the molecule `Nc1ncnc2c1ncn2[C@@H]1O[C@H](COP(=O)(O)CP(=O)(O)O)[C@@H](O)[C@H]1O` [AMPcP, Adenosine 5′-(α, β-methylene)diphosphate], the “peak area RSD” value in data set [1] (LC equipped with ethylene bridged hybrid (HST) surface technology) amounted to 0.4%; in data set [1] (metal-based biocompatible (MP35N) system) it was 6.4%. Besides, the “lower average peak area” value in data set [1] (setting [3]) amounted to 48%. For the same molecule, the “lower average peak height” value in data set [1] (setting [3]) was found to be 47%. In addition, the results for the average peak height in data set [2] (fully inert system) and in data set [2] (setting [5]) were 34400 μAU and 18100 μAU, respectively. Besides, the “peak area ratio between AMPcP and caffeine” value in data set [2] (fully inert system) is 1.1; in data set [2] (partially inert system) it was 0.79. Besides, the average peak area in data set [2] (setting [4]) is 18000 μAU*sec; in data set [2] (setting [6]), 12900 μAU*sec. For the same molecule, in data set [2] (setting [7]), the “decrease in average peak area” value came out at 28%. Moreover, the “decrease in average peak height” value in data set [2] (setting [7]) came out at 47%.
As for `Cn1c(=O)c2c(ncn2C)n(C)c1=O` [caffeine], the average peak height in data set [2] (fully inert system) is on record as 32000 μAU; in data set [2] (setting [5]), 32800 μAU. The average peak area in data set [2] (setting [4]) was 16100 μAU*sec; in data set [2] (setting [6]), 16300 μAU*sec.
